The test has as its target Interferon-γ-inducible protein 16 (IFI16), endogenous (human (endogenous in BCBL1, BC3, BJAB, iSLK, iSLK.219, U2OS)) (UniProt Q16666). As to the kind of experiment: affinity purification with mass spectrometry; IP of endogenous IFI16 from BCBL1 whole-cell lysate with anti-IFI16 mouse monoclonal or rabbit polyclonal antibody, control IgG (Rb) in parallel; on-bead trypsin digestion, LC-MS/MS; two biological replicates.

By UniProt entry, the sequences of proteins in these tests, tags left out.
UniProt Q16666: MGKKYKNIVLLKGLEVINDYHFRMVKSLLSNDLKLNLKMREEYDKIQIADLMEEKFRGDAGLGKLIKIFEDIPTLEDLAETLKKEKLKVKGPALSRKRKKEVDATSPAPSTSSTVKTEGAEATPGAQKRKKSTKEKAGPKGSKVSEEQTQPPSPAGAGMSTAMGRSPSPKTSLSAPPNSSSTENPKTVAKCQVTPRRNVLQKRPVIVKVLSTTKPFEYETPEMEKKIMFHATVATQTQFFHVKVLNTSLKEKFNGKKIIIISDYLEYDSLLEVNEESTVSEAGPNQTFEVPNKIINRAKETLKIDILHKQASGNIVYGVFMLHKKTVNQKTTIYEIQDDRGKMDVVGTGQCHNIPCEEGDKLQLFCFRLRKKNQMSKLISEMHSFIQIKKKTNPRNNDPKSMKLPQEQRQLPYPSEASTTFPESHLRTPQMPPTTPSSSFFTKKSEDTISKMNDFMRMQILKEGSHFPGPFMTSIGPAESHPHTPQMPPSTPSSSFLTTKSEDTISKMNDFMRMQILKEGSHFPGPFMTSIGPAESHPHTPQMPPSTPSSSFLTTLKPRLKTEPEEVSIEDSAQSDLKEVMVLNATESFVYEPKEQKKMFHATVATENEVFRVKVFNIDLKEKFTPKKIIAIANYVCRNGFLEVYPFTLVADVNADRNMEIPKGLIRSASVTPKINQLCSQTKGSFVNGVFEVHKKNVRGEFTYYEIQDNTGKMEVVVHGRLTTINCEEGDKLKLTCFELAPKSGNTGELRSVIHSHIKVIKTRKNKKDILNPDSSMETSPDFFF
UniProt Q13547: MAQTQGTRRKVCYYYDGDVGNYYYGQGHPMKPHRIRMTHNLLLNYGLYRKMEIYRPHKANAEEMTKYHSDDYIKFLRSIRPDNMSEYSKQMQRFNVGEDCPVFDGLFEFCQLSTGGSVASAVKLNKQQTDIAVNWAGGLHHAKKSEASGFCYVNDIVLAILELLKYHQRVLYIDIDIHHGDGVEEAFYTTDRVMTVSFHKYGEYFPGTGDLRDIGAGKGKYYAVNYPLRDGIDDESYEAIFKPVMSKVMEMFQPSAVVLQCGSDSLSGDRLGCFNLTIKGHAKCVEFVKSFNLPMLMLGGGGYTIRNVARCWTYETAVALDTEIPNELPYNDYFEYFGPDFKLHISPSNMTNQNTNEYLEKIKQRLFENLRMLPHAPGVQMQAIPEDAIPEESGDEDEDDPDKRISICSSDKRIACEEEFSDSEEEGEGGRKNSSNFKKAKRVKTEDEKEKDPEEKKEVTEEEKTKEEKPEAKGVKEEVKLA
UniProt Q92769: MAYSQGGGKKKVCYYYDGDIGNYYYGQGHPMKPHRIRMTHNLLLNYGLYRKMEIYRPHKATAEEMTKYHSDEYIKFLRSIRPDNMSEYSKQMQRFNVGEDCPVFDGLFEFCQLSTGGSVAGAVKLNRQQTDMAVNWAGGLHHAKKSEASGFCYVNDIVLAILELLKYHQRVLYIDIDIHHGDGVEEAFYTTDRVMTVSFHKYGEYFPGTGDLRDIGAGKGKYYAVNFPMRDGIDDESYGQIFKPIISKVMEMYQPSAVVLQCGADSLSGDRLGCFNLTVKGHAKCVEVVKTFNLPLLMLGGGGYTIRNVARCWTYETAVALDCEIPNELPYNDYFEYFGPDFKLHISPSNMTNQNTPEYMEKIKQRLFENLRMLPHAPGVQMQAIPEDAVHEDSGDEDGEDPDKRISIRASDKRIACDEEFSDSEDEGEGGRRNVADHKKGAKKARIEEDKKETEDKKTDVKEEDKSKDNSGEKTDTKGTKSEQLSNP

These are yes or no findings as the source states them, for the method shown. In cells and extracts the contact can be indirect. A yes stands for co-enrichment or nearness to the bait. Other partners may have been found.

Take “HDAC1, endogenous (from UniProt Q13547 1-482) (enzyme)”: the binding result is reported as “binds”.

Take “HDAC2, endogenous (from UniProt Q92769 1-488) (enzyme)”: the binding entry is reported as “binds”.

Source of the values: publication PMC11915870.
